PubChem BioAssay AID1259291 | Sanger Institute | 2017

Screen: 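Search for gene knock-downs that act synergistically alongside anchor drugs to kill cells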 (primary screen)
System: HT29 human colorectal cancer cells
Knock-down reagent: siRNA pool against human genes
Challenge: anchor drugs added a day after transfection: BYL719 at 1 µM, cetuximab at 5 µg/ml or trametinib at 10 nM, or DMSO vehicle alone
Read-out: 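Replicate-averaged viability relative to non-targeting pool, robust z-score based on control wells, plus per-drug synergy score for 1 µM BYL719, 5 µg/ml cetuximab and 10 nM trametinib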
Scale: robust z-score, knock-down alone and viability, knock-down alone: higher = more viable cells; synergy score with BYL719 and synergy score with cetuximab and synergy score with trametinib: higher = stronger synergistic killing with drug
Hit rule: 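Essential when the robust z-score for knock-down without any drug is below -3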
Meaning of the calls: active = essential (knock-down alone); inactive = no change alone
The whole screen tested 794 reagents; shown is an unselected part. 15 of all reagents (1.9%) were called active. 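Calls rest on knock-down alone; drug synergy scores do not affect them; drugs added a day post-transfection, DMSO vehicle as comparison.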 No viability above 1 is reported: the scale is capped. Not given: the amount of reagent, the time to read-out.

gene symbol | robust z-score, knock-down alone | viability, knock-down alone (fraction of control) | synergy score with BYL719 | synergy score with cetuximab | synergy score with trametinib | Outcome
HK2 (GeneID 3099) | -1.47 | 0.874 | -0.0183 | -0.0831 | 0.0339 | inactive
MAP3K3 (GeneID 4215) | 0.552 | 1 | -0.142 | 0 | 0.0857 | inactive
NIM1K (GeneID 167359) | 0.552 | 1 | -0.0531 | 0 | 0.0332 | inactive
STRADB (GeneID 55437) | -0.896 | 0.91 | -0.0852 | -0.0365 | -0.043 | inactive
KCNH2 (GeneID 3757) | 0.552 | 1 | -0.0305 | 0 | 0.0392 | inactive
GALK2 (GeneID 2585) | -0.381 | 0.942 | -0.0346 | -0.0579 | 0.0833 | inactive
RET (GeneID 5979) | 0.552 | 1 | -0.016 | 0.000526 | 0.00402 | inactive
STK11 (GeneID 6794) | -1.39 | 0.88 | -0.0916 | -0.12 | 0.0536 | inactive
DCLK2 (GeneID 166614) | -1.44 | 0.876 | -0.0441 | -0.109 | -0.00822 | inactive
MAP2K2 (GeneID 5605) | 0.552 | 1 | -0.000953 | 0.0352 | -0.0347 | inactive
MKNK2 (GeneID 2872) | -1.4 | 0.879 | -0.0527 | -0.0388 | 0.00712 | inactive
HSPB8 (GeneID 26353) | 0.352 | 0.988 | 0.0232 | 0.0648 | 0.0757 | inactive
SOS2 (GeneID 6655) | 0.552 | 1 | -0.0849 | 0 | 0.0523 | inactive
STK32C (GeneID 282974) | 0.552 | 1 | -0.0755 | 0.146 | -0.0389 | inactive
CDK15 (GeneID 65061) | 0.552 | 1 | -0.074 | 0.0478 | 0.0812 | inactive
PAPSS2 (GeneID 9060) | 0.552 | 1 | -0.0654 | 0.0442 | 0.118 | inactive
JAK1 (GeneID 3716) | 0.552 | 1 | -0.158 | 0.0802 | -0.0329 | inactive
DTYMK (GeneID 1841) | 0.174 | 0.977 | -0.0526 | 0.052 | 0.0209 | inactive
CHEK1 (GeneID 1111) | -4.47 | 0.689 | -0.0667 | -0.0479 | -0.0963 | active
CSNK1D (GeneID 1453) | -1.02 | 0.902 | -0.063 | -0.0966 | -0.0124 | inactive
TRPM6 (GeneID 140803) | 0.552 | 1 | 0.0121 | 0 | -0.121 | inactive
PSKH2 (GeneID 85481) | 0.552 | 1 | -0.071 | 0 | 0.116 | inactive
ACVRL1 (GeneID 94) | 0.552 | 1 | -0.113 | 0 | -0.0707 | inactive
MAPK15 (GeneID 225689) | -0.293 | 0.948 | -0.0317 | -0.00584 | -0.0779 | inactive
TAF1L (GeneID 138474) | -0.59 | 0.929 | -0.0893 | -0.0709 | 0.0808 | inactive
GRK3 (GeneID 157) | 0.552 | 1 | -0.136 | 0 | -0.00504 | inactive
MAP4K4 (GeneID 9448) | -1.06 | 0.9 | -0.0405 | -0.1 | -0.0638 | inactive
PGK2 (GeneID 5232) | 0.552 | 1 | -0.0117 | 0.111 | -0.132 | inactive
LMTK2 (GeneID 22853) | 0.552 | 1 | -0.0466 | 0.0429 | 0.0805 | inactive
HUNK (GeneID 30811) | -1.12 | 0.896 | 0.00895 | -0.00288 | 0.186 | inactive
PFKFB3 (GeneID 5209) | 0.441 | 0.993 | 0.0915 | -0.00141 | 0.248 | inactive
KRAS (GeneID 3845) | -1.13 | 0.896 | -0.0444 | 0.0425 | 0.132 | inactive
CDC42BPB (GeneID 9578) | -0.284 | 0.948 | -0.0794 | -0.0333 | -0.0225 | inactive
STRADA (GeneID 92335) | 0.552 | 1 | 0.0203 | 0 | 0.025 | inactive
HIPK1 (GeneID 204851) | 0.552 | 1 | -0.0334 | 0 | -0.0864 | inactive
NTN4 (GeneID 59277) | -2.22 | 0.828 | -0.0109 | 0.000375 | -0.18 | inactive
CASK (GeneID 8573) | -0.0651 | 0.962 | 0.0458 | 0.0965 | 0.0458 | inactive
AK4 (GeneID 205) | 0.552 | 1 | -0.0425 | 0.0661 | 0.0892 | inactive
PAK6 (GeneID 56924) | 0.552 | 1 | -0.00863 | 0.0149 | 0.0857 | inactive
KSR1 (GeneID 8844) | -0.38 | 0.942 | 0.106 | 0.0621 | 0.115 | inactive
MARK4 (GeneID 57787) | 0.104 | 0.972 | 0.0543 | 0.0195 | 0.0207 | inactive
RAF1 (GeneID 5894) | 0.552 | 1 | 0.0339 | 0.102 | 0.0175 | inactive
FGFR2 (GeneID 2263) | -0.961 | 0.906 | -0.0161 | 0.0577 | -0.0399 | inactive
HIPK4 (GeneID 147746) | 0.552 | 1 | -0.0642 | 0 | -0.0487 | inactive
NRBP1 (GeneID 29959) | -1.26 | 0.888 | -0.0179 | -0.112 | 0.0296 | inactive
CDK20 (GeneID 23552) | -0.381 | 0.942 | 0.0749 | -0.0224 | -0.104 | inactive
NME6 (GeneID 10201) | 0.552 | 1 | 0.0875 | 0 | 0.0653 | inactive
CKS2 (GeneID 1164) | -3 | 0.78 | -0.211 | -0.22 | 0.00101 | inactive
HASPIN (GeneID 83903) | -2.21 | 0.829 | 0.00132 | -0.171 | 0.0976 | inactive
ADK (GeneID 132) | 0.552 | 1 | 0.108 | 0 | 0.0376 | inactive
